The supplement of paper PMC10849652
The other results are listed elsewhere or left out.

By UniProt entry, the sequences of proteins in these tests, tags left out. Where a name states a change or a piece, a line headed by the entry shows the natural chain unless it says otherwise.
UniProt Q96FJ2, whole entry, looked up: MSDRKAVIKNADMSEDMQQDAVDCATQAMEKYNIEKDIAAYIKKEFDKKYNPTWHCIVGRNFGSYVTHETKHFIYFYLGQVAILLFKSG
UniProt Q9NYP3: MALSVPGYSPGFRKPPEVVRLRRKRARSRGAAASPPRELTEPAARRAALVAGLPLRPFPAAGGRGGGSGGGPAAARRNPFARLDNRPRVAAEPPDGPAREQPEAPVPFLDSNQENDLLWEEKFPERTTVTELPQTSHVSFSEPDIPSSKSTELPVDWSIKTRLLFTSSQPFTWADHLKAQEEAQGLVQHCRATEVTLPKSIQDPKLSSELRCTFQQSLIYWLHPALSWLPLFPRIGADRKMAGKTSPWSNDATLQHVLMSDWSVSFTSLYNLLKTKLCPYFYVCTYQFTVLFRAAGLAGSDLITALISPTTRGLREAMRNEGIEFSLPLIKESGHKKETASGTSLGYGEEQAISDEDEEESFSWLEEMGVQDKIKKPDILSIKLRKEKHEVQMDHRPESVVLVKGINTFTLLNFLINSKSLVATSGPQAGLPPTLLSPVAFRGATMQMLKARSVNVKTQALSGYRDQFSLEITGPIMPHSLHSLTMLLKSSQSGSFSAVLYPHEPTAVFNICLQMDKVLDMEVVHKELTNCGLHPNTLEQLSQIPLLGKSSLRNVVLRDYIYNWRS
UniProt P63172, whole entry, looked up: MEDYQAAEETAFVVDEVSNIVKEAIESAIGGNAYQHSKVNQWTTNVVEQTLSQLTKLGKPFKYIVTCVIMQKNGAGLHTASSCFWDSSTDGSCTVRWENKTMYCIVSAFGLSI
UniProt Q5JPH6: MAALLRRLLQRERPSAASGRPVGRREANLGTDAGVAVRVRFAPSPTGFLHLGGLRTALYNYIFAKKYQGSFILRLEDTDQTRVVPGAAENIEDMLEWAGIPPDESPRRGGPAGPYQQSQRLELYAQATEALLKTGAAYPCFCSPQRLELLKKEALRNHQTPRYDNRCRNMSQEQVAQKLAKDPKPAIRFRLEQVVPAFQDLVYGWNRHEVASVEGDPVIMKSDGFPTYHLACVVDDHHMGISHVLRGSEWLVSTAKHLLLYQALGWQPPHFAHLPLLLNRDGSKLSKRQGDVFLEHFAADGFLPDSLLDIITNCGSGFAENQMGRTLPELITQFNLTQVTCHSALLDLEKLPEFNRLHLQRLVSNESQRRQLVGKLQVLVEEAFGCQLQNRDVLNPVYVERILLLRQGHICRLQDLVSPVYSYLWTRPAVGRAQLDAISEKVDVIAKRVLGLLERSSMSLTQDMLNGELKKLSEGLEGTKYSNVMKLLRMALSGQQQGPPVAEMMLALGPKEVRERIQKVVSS
UniProt O00429, whole entry, looked up: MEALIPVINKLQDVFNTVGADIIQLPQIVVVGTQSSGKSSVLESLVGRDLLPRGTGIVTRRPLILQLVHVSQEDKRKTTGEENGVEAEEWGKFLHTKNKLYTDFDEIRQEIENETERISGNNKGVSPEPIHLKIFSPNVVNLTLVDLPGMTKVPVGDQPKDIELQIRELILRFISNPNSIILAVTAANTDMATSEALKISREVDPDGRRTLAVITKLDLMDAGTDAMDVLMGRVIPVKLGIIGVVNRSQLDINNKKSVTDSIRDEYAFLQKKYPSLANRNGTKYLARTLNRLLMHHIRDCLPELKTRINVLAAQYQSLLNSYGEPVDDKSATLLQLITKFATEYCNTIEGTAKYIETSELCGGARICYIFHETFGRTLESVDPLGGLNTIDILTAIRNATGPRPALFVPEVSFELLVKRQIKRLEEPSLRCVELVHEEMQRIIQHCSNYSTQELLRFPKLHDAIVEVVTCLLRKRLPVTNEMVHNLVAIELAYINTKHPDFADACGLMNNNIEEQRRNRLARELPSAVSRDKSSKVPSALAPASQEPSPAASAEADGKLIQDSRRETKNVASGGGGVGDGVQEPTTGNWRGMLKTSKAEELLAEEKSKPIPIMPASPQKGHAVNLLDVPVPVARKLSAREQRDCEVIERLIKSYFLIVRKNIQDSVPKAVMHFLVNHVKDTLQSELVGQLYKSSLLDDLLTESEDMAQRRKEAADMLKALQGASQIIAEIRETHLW
UniProt Q9NVM6: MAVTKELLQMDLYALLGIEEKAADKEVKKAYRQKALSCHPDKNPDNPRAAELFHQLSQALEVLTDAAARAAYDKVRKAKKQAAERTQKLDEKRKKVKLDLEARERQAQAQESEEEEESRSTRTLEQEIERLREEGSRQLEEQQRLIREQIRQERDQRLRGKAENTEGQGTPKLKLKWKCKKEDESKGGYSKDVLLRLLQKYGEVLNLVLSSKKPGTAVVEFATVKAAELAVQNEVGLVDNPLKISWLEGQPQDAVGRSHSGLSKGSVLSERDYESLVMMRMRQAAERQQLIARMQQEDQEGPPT

Tests used:
Assay in all cases: log2 fold change, soluble protein after heating vs DMSO (PISA); higher = thermal stabilisation; K562 cells, 10 uM, 30 min; active = over 0.2 and 3.5 SD of the protein, either way, in both replicates (recomputed)
[1] = compound: NC(=O)Nc1cc(-c2cccc(F)c2)sc1C(=O)N[C@H]1CCCNC1
In short: (§1)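 Thermal stability values are relative to control samples and come from duplicates. They are expressed as log2 fold changes. For measurement, K562 cells (2×10^6 cells/mL) received 10 μM compound for 30 min, and aliquots were heated for 3 min over 48°C-58°C, pooled, and extracted at 4°C in PBS with 0.5% NP-40. Soluble protein, the supernatant after 21,000xg for 90 min, was quantified by TMTpro 16plex LC-MS/MS with equalised channel sums.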

[2] = compound: NC(=O)c1cnc(N[C@@H]2CCCC[C@@H]2N)nc1Nc1cccc(-n2nccn2)c1
In short: as §1

[3] = compound: NC1(c2ccc(-c3nc4ccn5c(=O)[nH]nc5c4cc3-c3ccccc3)cc2)CCC1
In short: as §1

[4] = compound: NCC(=O)Nc1ccc(-n2nc(C(F)(F)F)cc2-c2ccc3c(ccc4ccccc43)c2)cc1
In short: as §1

entinostat = compound: Nc1ccccc1NC(=O)c1ccc(CNC(=O)OCc2cccnc2)cc1 [entinostat]
In short: as §1

vorinostat = compound: O=C(CCCCCCC(=O)Nc1ccccc1)NO [vorinostat]
In short: as §1

citarinostat = compound: O=C(CCCCCCNC(=O)c1cnc(N(c2ccccc2)c2ccccc2Cl)nc1)NO [citarinostat]
In short: as §1

silmitasertib = compound: O=C(O)c1ccc2c(c1)nc(Nc1cccc(Cl)c1)c1ccncc12 [silmitasertib]
In short: as §1

[5] = compound: O=C1NC(=O)C(c2cnc3ccccn23)=C1c1cn2c3c(cc(F)cc13)CN(C(=O)N1CCCCC1)CC2
In short: as §1

[6] = compound: c1cc(OCCN2CCCCC2)cc(-c2n[nH]c3ccc(-c4nnc[nH]4)cc23)c1
In short: as §1

entospletinib = compound: c1cn2cc(-c3ccc4cn[nH]c4c3)nc(Nc3ccc(N4CCOCC4)cc3)c2n1 [entospletinib]
In short: as §1

Measured: log2 fold change

DYNLL2 (UniProt Q96FJ2)
inactive: [1] -0.03 | [2] -0.034 | [3] 0.01 | [4] -0.094 | entinostat 0.047 | vorinostat -0.027 | citarinostat 0.025 | silmitasertib -0.029 | [5] -0.057 | [6] -0.004 | entospletinib 0.052

DONSON (UniProt Q9NYP3)
inactive: [1] 0.136 | [2] -0.073 | [4] -0.042 | entinostat -0.021 | vorinostat -0.103 | citarinostat 0 | [5] 0.118 | [6] -0.074 | entospletinib 0.129

DYNLT1 (UniProt P63172)
inactive: [1] -0.093 | [2] 0.102 | [3] 0.011 | [4] 0.026 | entinostat 0 | vorinostat 0.142 | citarinostat 0.031 | silmitasertib -0.07 | [6] 0.008 | entospletinib -0.021

EARS2 isoform 2 (UniProt Q5JPH6)
inactive: [1] -0.082 | [2] 0.056 | [3] -0.005 | [4] -0.047 | entinostat 0.074 | citarinostat 0.109 | silmitasertib 0.047 | [5] -0.331 | [6] 0.086 | entospletinib 0.068

DNM1L isoform 2 (UniProt O00429)
inactive: [1] -0.023 | [2] 0.081 | [3] -0.108 | [4] 0.108 | entinostat -0.074 | vorinostat 0.143 | citarinostat 0.009 | silmitasertib 0.051 | [6] 0.036 | entospletinib -0.029

DNAJC17 (UniProt Q9NVM6)
inactive: [1] -0.022 | [2] -0.006 | [3] -0.024 | [4] -0.002 | entinostat -0.049 | vorinostat -0.122 | citarinostat 0.026 | silmitasertib 0.016 | [5] 0.03 | [6] 0.083 | entospletinib -0.037
